Source: article PMC9937529, “Mechanism of activation and biased signaling in complement receptor C5aR1” (Cell Research, 2023)
These are yes or no findings as the source states them, for the method shown. Binding seen in cells or lysates may run through a third protein. Some entries that bind do so weakly or less than the wild type.

Sequences of proteins named here, by UniProt entry; tags and fusion partners are left off.
UniProt Q9P296: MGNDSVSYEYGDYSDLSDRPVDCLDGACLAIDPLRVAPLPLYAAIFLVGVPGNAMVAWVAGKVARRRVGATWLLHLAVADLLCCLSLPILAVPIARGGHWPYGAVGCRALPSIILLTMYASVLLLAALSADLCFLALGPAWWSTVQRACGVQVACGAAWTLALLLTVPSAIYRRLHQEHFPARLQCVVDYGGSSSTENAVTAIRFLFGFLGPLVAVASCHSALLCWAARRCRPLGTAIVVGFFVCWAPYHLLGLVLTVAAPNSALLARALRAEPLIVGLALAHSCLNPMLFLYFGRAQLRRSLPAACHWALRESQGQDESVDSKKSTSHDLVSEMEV
UniProt P21730: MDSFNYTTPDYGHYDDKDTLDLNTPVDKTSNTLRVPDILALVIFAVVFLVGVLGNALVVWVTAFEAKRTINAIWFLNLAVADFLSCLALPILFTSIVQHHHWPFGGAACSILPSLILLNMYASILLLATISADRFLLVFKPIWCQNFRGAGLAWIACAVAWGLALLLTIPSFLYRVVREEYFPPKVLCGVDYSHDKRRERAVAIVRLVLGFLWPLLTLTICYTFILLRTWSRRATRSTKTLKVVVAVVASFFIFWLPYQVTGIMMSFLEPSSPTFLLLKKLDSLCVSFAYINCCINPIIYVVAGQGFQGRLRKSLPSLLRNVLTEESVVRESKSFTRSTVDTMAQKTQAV
UniProt P32121: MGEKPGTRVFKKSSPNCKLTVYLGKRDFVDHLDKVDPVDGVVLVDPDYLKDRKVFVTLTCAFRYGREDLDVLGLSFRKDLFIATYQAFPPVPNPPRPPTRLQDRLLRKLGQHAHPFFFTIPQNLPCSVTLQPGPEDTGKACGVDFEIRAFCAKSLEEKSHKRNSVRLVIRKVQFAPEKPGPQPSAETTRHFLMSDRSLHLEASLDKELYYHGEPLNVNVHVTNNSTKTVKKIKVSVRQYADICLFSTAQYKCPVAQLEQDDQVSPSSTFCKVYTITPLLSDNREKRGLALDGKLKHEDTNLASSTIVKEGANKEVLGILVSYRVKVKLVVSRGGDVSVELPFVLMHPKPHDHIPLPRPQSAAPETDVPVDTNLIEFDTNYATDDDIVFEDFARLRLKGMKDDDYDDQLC

What was measured:
[1] = biological target: C5aR2-mVenus (UniProt Q9P296); assay: FRET or BRET; HEK293 cells transiently transfected with C5aR1-Nluc and mVenus-β-arrestin 2 or C5aR2-mVenus and Nluc-β-arrestin 2; coelenterazine h; agonist with or without antagonist for 10 min; ligand-induced BRET ratio
[2] = biological target: C5aR1-Nluc (human) (UniProt P21730); assay: as above

binding [1]	binding [2]	Substance
binds		Nluc-β-arrestin 2 (from UniProt P32121 1-409)
	binds	mVenus-β-arrestin 2 (from UniProt P32121 1-409)
